Measurements published in patent US20260207720A1, “COMPOSITIONS AND METHODS FOR TREATING FUNGAL INFECTIONS” (MUCPharm Pty Ltd, priority 2022, published 2026).
Some of these results come from one statement about several compounds together.

Test system: Candida kruseii
Assay: Susceptibility assay of antifungals with BromAc (Example 4)
Type: cell-based
Settings: Candida Krusei; antifungal with BromAc
Method: The in vitro antifungal properties of Bromelain, Acetylcysteine, BromAc, Amphotericin B, Isavuconazole, Fluconazole and Posaconazole were determined using a broth microdilution method in round bottom 96 well plates in accordance with standard procedures defined by the Clinical Laboratory Standards Institute (CLSI).
Unless otherwise described, fungal cultures were grown on potato dextrose agar plates at 35° C. until mature (appearance of conidia) and used to prepare suspensions in sterile water. Suspensions were diluted in RPMI 1:60. These suspensions were then added in equal volume to solutions containing the candidate species described above and incubated at 35° C. for 24 hr. Plates were then analysed for fungal growth inhibition and MIC values determined.
BromAc (5 mg/ml Acetylcysteine+12.5 μg/ml Bromelain) was used in combination with Amphotericin B, Isavuconazole, Posaconazole and Fluconazole. The MIC values of these four antifungal agents against the fungus described below were calculated and compared with their corresponding MIC values in the presence of BromAc, using the standard susceptibility assays described above. […]

Row | SMILES | increase in sensitivity
1 | C[C@@H]1[C@H](O)[C@@H](C)/C=C/C=C/C=C/C=C/C=C/C=C/C=C/[C@H](O[C@@H]2O[C@H](C)[C@@H](O)[C@H](N)[C@@H]2O)C[C@@H]2O[C@](O)(C[C@@H](O)C[C@@H](O)[C@H](O)CC[C@@H](O)C[C@@H](O)CC(=O)O[C@H]1C)C[C@H](O)[C@H]2C(=O)O [Amphotericin B] | more than 10 ×
2 | CC[C@@H]([C@H](C)O)n1ncn(-c2ccc(N3CCN(c4ccc(OC[C@@H]5CO[C@@](Cn6cncn6)(c6ccc(F)cc6F)C5)cc4)CC3)cc2)c1=O [Posaconazole] | more than 10 ×
